Reference: PubChem BioAssay AID602254 (Broad Institute, 2012)
Fewer than 10 of roughly 1,000 compounds were called active.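 The calls were made as follows: active = fitted half-maximal concentration no higher than twice the top valid tested dose, with signal falling; inconclusive = flat curve with 30 to 70% inhibition, or poor fit; inactive = the rest.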 The list shows a part of the results. Measured potencies and affinities stand elsewhere.

molecular target: Golgi-associated PDZ and coiled-coil motif-containing protein (Homo sapiens) (UniProt Q9HD26); assay: CAL PDZ domain peptide-binding inhibitors, dose response, biochemical, fluorescence polarization, untagged CAL PDZ, cherry-pick, set 2 (AID 602254); conditions: Purified CAL PDZ, TMR peptide fluorescence polarization; at 60 µM (top of the series);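 also: 0% = DMSO neutral control and -100% = unlabeled peptide PRC23 positive control; more negative means stronger blocking of peptide binding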

Activity change, negative = inhibition, inactive:
O=C(c1cnn(C(=O)CN2CCCC2=O)c1)c1ccccc1O 3.88%, NS(=O)(=O)c1ccc2nc(NC(=O)c3ccc4c(c3)OCCO4)sc2c1 11.1%, Cc1c(Cl)cccc1NC(=S)N(CCN(C)C)C(C)c1ccccn1 (stereo not given) -8.05%, CN(CC1CCCO1)S(=O)(=O)c1ccc(C(=O)N2CCN(c3ccccc3)CC2)cc1 (stereo not given) -0.495%, CC(NC(=O)CCC(=O)NCc1ccc(F)cc1)c1ccccc1 (stereo not given) -1.48%, COc1cc(SC)ccc1C(=O)NC1CCCCC1 -7.54%, CC(C)(Oc1ccc(Cl)cc1)C(=O)NCc1ccc(S(N)(=O)=O)cc1 -1.4%, CN(C(=O)c1cccc(NC(=O)c2ccccc2)c1)C1CCCCC1 1.36%, COc1ccc(Nc2nc3ccccc3nc2NS(=O)(=O)c2cccs2)cc1 -1.62%, CCCn1nnc(NC(=O)c2ccc3c(c2)OCO3)n1 2.04%, CCCCN1CC(COC)Oc2cccc(F)c2S1(=O)=O (stereo not given) 0.529%, Cc1cc(Nc2ccccc2Cl)nc(-c2ccccc2O)n1 1.86%, CC(C)CNC(=S)NC1CCCC1 0.758%, Cc1ccc(-c2nc(N)n(C(=O)c3cccs3)n2)cc1 -1.07%, CC(C)(C)c1cc(C(=O)NNc2cccc(Cl)c2)n(Cc2ccccc2)n1 -0.821%, COc1ccc(NS(=O)(=O)c2cc(NC(=O)Cc3n[nH]c(=O)c4ccccc34)ccc2OC)cc1 2.99%, O=C(O)Cn1c(-c2ccccc2)cc2ccccc21 -5.11%, COc1ccc(OCC(=O)Nc2nc3c(s2)CCCC3)cc1 4.2%, Cc1nc2c3cc(Cl)ccc3n(CCN3CCOCC3)c2s1 -0.504%, O=C1OC(COc2ccc(Br)cc2)CN1c1ccccc1 (stereo not given) -1.12%, CCN(C(=O)CN1C(=O)/C(=C/c2ccccc2)SC1=S)C1CCS(=O)(=O)C1 (stereo not given) 2.96%, COc1ccc(-c2noc(-c3ccccc3C(=O)NCC3CCCO3)n2)cc1 (stereo not given) -0.781%, O=C(NC1CCCCC1)N1CCN(c2nc(-c3ccccc3)cs2)CC1 -3.39%, CCOC(=O)C1(CCCc2ccccc2)CCN(Cc2cnn(C)c2)CC1 0.665%, Cc1ccc(S(=O)(=O)Nc2c(C)n(C)n(-c3ccccc3)c2=O)cc1 -1.36%, COc1ccc(C(=O)Nc2ccc(S(=O)(=O)Nc3nccc(C)n3)cc2)cc1OC 2.45%, O=C(Oc1ccccc1)N1CCOCC1 0.207%, COc1ccc(Nc2ncc(C(=O)N3CCC(C(N)=O)CC3)c3ccccc23)cc1 0.212%, CC1CCC(NC(=O)c2nn(C)c3c2CSc2ccccc2-3)CC1 (stereo not given) -0.08%, COc1ccc(CCNc2nc(-c3ccccn3)cs2)cc1OC -0.104%, Cc1ccc(OCC(=O)Nc2ccc(-c3nc4ncccc4o3)cc2)cc1 1.17%, CCc1ccc2nc(N(CCN(C)C)C(=O)c3ccc4ccccc4c3)sc2c1 -3.83%, Cc1ccc(NC(=O)c2c(-c3ccccc3)noc2C)nc1 -14.1%, CCN(C(=O)CN1C(=O)/C(=C/c2ccccc2F)SC1=S)C1CCS(=O)(=O)C1 (stereo not given) -1.37%, CCOC(=O)C(/C=N/c1cc(C)nn1-c1ccccc1)=C(\C)O 3.31%, O=C(COc1ccc(Cl)cc1Cl)Nc1ccc(CN2CCOCC2)cc1 1.64%, COC(=O)c1cc(-c2ccccc2)sc1NC(=O)CN1C(=O)c2ccccc2C1=O -1.65%, CC(=O)N1CCc2cc(S(=O)(=O)NCC(=O)NCc3ccc(F)cc3)ccc21 1.04%, N#CCCN1CCN(S(=O)(=O)c2ccc(S(=O)(=O)NC3CCCCC3)cc2)CC1 -0.226%, CN(c1ccc(OCC(=O)N2CCC(C(N)=O)CC2)cc1)S(=O)(=O)c1cccs1 -3.85%, O=C(COc1ccc2c(c1)OCO2)Nc1nccs1 1.01%, CNC(=O)c1cc2cc(OC)ccc2n1CCN(C)C 1.02%, Cc1ncc(CN2CCN(C3CCCC3)C(CCO)C2)s1 (stereo not given) -4.61%, COc1ccccc1N(CC(=O)N1CCN(c2ccccc2)CC1)S(=O)(=O)c1ccc(C)cc1 -2.13%, O=C(Cn1c(=O)oc2cc(S(=O)(=O)N3CCCC3)ccc21)Nc1ccccc1Br -0.669%, CC(C)C(=O)N1CCN(c2ccccc2NC(=O)c2cccc3ccccc23)CC1 4.14%, COCCOc1cc2ncnc(N3CCC(C(=O)O)CC3)c2cc1OCCOC 6.1%, CCCCOC(=O)c1ccc(NC(=O)C2CCCO2)cc1 (stereo not given) -0.656%, CSc1ccccc1C(=O)NCCCn1ccnc1 -0.752%, O=C(COC(=O)c1ccccn1)Nc1ccc2c(c1)OCCO2 -2.11%, COCCNC(=O)C(=O)NCCN1CCNCC1 -3.25%, Cc1cc(C)n(C(=O)c2cccc(S(=O)(=O)N3CCOCC3)c2)n1 0.568%, Cc1ccc2c(c1)N(CC(=O)Nc1ccccc1F)C(=O)CO2 0.409%, COc1ccccc1C(=O)N/N=C(\C)CC(=O)Nc1ccc(Cl)cn1 -2.34%, COc1ccc(CCNS(=O)(=O)c2ccc3c(c2)OCCO3)cc1OC -3.02%, COc1ccccc1N1CCN(C2CCCN(C(=O)c3cc(C4CC4)on3)C2)CC1 (stereo not given) -0.75%, CC(NC(=O)c1cc(-c2ccncc2)nc2ccc(Br)cc12)C1CCCO1 (stereo not given) -1.38%, COc1ccc(C(=O)C2CCN(C(=O)c3ccc(OC)cc3)CC2)cc1 5.04%, COc1cc(CC(=O)NCC(C)(C)N2CCOCC2)cc(OC)c1OC 1.26%, CC(=O)c1ccc(N2CCN(S(=O)(=O)c3ccc4c(c3)CC(C)N4C(=O)C3CC3)CC2)cc1 (stereo not given) -0.545%
